Measurements published in the odorant receptor screen of Mainland et al. (2015).
Where “and” joins values, the source holds several entries; their conditions need not be identical. Equal entries are not always repeated. This is one part of the list. Single wells; the ratio to wells without odorant was worked out here, and repeats agree poorly.

System: OR13C3 G2C clone 1339
Assay: odorant receptor activation (CRE luciferase / Renilla) (fold of no-odor wells); higher = more activation
Conditions: 100 µM

Structure (SMILES) | odorant receptor activation
CCCCCC(=O)O [caproic acid] | 1.06
CC1CCC(C(C)C)C(O)C1 (single isomer, unassigned; (+)) [(+)-menthol] | 0.959
O=C1CCCCC1 [Cyclohexanone] | 0.399
CC(=O)c1ccccc1 [acetophenone] | 1.43
COC(=O)c1ccccc1 [methyl benzoate] | 0.366
O=CCc1ccccc1 [phenyl acetaldehyde] | 1.11
C=CC(C)(O)CCC=C(C)C (centres undefined) [linalool] | 0.941
CCCCO [1-butanol] | 1.15
CC/C=C\CCO [cis-3-hexen-1-ol] | 1.02
CC1=CCC(C(C)(C)O)CC1 (centres undefined) [terpineol] | 0.88
CC(C)CCC(=O)O [4-methylvaleric acid] | 1.22
CC1COCc2cc3c(cc21)C(C)(C)C(C)C3(C)C (centres undefined) [galaxolide] | 3.41 and 2.77
CC1CCC(C(C)C)C(O)C1 (single isomer, unassigned; (-)) [(-)-menthol] | 0.722
CC(C)(C)c1ccc(CCC=O)cc1 [bourgeonal] | 1.03
CCCCCCCCOC(C)=O [octyl acetate] | 1.1
CC1=NC(C)SC1C (centres undefined) | 1.02
CC12C=CCC1C1CCC3CC(=O)CCC3(C)C1CC2 (centres undefined) [androstenone] | 1.09
C=C(C)C1CC=C(C)C(=O)C1 (centres undefined) [r-carvone] | 0.786
CC12C=CCC1C1CCC3=CC(=O)CCC3(C)C1CC2 (centres undefined) [androstadienone] | 1.12 and 1.05
CCCCCCCOC(C)=O [heptyl acetate] | 0.99 and 1.13
CC(C)C=O [isobutyraldehyde] | 1.25 and 1.01
CC=Cc1ccc(O)c(OC)c1 [isoeugenol] | 1.61
CCCC(=O)O [butyric acid] | 1.05
CCCCCC(C)=O [2-heptanone] | 0.91
CCCCCCCC=CC=O [2-decenal] | 1.19

System: OR13C3 clone 1390
Assay: as above
Conditions: 100 µM

Structure (SMILES) | odorant receptor activation
CCCCCC(=O)O [caproic acid] | 0.19
C=C(C)C1CC=CCC1 (centres undefined) [r-limonene] | 1.09 and 0.917
CC1CCC(C(C)C)C(O)C1 (single isomer, unassigned; (+)) [(+)-menthol] | 0.692
O=C1CCCCC1 [Cyclohexanone] | 1.01
CC(=O)c1ccccc1 [acetophenone] | 1.06
COC(=O)c1ccccc1 [methyl benzoate] | 0.976
O=CCc1ccccc1 [phenyl acetaldehyde] | 1.27
C=CC(C)(O)CCC=C(C)C (centres undefined) [linalool] | 0.61
CCCCO [1-butanol] | 1.43
CC/C=C\CCO [cis-3-hexen-1-ol] | 0.223
CC1=CCC(C(C)(C)O)CC1 (centres undefined) [terpineol] | 0.898
CC(C)CCC(=O)O [4-methylvaleric acid] | 1.08
CC1COCc2cc3c(cc21)C(C)(C)C(C)C3(C)C (centres undefined) [galaxolide] | 4.31
CC1CCC(C(C)C)C(O)C1 (single isomer, unassigned; (-)) [(-)-menthol] | 0.684
CC(C)(C)c1ccc(CCC=O)cc1 [bourgeonal] | 0.167
CCCCCCCCOC(C)=O [octyl acetate] | 0.717
CC1=NC(C)SC1C (centres undefined) | 0.996
CC12C=CCC1C1CCC3CC(=O)CCC3(C)C1CC2 (centres undefined) [androstenone] | 1.1
C=C(C)C1CC=C(C)C(=O)C1 (centres undefined) [r-carvone] | 0.984
CC12C=CCC1C1CCC3=CC(=O)CCC3(C)C1CC2 (centres undefined) [androstadienone] | 0.877
CCCCCCCOC(C)=O [heptyl acetate] | 1.07
CC(C)C=O [isobutyraldehyde] | 0.704
CC=Cc1ccc(O)c(OC)c1 [isoeugenol] | 1.41
CCCC(=O)O [butyric acid] | 0.22
CCCCCC(C)=O [2-heptanone] | 0.988
CCCCCCC=O [heptaldehyde] | 1.25 and 0.992
CCCCCCCC=CC=O [2-decenal] | 1.3

System: OR13C4 clone 1094
Assay: as above
Conditions: 100 µM

Structure (SMILES) | odorant receptor activation
CCCCCC(=O)O [caproic acid] | 1.08
C=C(C)C1CC=CCC1 (centres undefined) [r-limonene] | 1.21 and 1.11
CC1CCC(C(C)C)C(O)C1 (single isomer, unassigned; (+)) [(+)-menthol] | 21.4
O=C1CCCCC1 [Cyclohexanone] | 1.04
CC(=O)c1ccccc1 [acetophenone] | 1.03
COC(=O)c1ccccc1 [methyl benzoate] | 1.24
O=CCc1ccccc1 [phenyl acetaldehyde] | 1.35
C=CC(C)(O)CCC=C(C)C (centres undefined) [linalool] | 0.998
CCCCO [1-butanol] | 21.3
CC/C=C\CCO [cis-3-hexen-1-ol] | 1.01
CC1=CCC(C(C)(C)O)CC1 (centres undefined) [terpineol] | 1.05
CC(C)CCC(=O)O [4-methylvaleric acid] | 14.7
CC1COCc2cc3c(cc21)C(C)(C)C(C)C3(C)C (centres undefined) [galaxolide] | 3.57
CC1CCC(C(C)C)C(O)C1 (single isomer, unassigned; (-)) [(-)-menthol] | 18.1
CC(C)(C)c1ccc(CCC=O)cc1 [bourgeonal] | 0.775
CCCCCCCCOC(C)=O [octyl acetate] | 0.874
CC1=NC(C)SC1C (centres undefined) | 0.612
CC12C=CCC1C1CCC3CC(=O)CCC3(C)C1CC2 (centres undefined) [androstenone] | 10.1
C=C(C)C1CC=C(C)C(=O)C1 (centres undefined) [r-carvone] | 0.956
CC12C=CCC1C1CCC3=CC(=O)CCC3(C)C1CC2 (centres undefined) [androstadienone] | 2.1
CCCCCCCOC(C)=O [heptyl acetate] | 0.944
CC(C)C=O [isobutyraldehyde] | 2.75
CC=Cc1ccc(O)c(OC)c1 [isoeugenol] | 1.12
CCCC(=O)O [butyric acid] | 1.06
CCCCCC(C)=O [2-heptanone] | 0.479
CCCCCCC=O [heptaldehyde] | 0.557 and 1.2
CCCCCCCC=CC=O [2-decenal] | 23.2
